Results taken from patent US9714219B2, “Sulfonylaminobenzamide compounds” (Novartis Tiergesundheit AG, priority 2014, dated 2017).
Some entries share one result that the patent states for a list of compounds.

Columns and labels:
adult Fasciola hepatica = test: Adult liver fluke in vitro assay; conditions: 100 μg/mL
A. viteae = test: Acanthocheilonema viteae in gerbil; format: in vivo; conditions: 10 mg/kg by gavage, day 5 to day 9 after infection, read 84 days after infection

Row | SMILES | efficacy (percent reduced movement based on the pre-value and the untreated control) after 6 h (adult Fasciola hepatica; after 6 h) [%] | efficacy (percent reduced movement based on the pre-value and the untreated control) after 24 h (adult Fasciola hepatica; after 24 h) [%] | efficacy (% reduction in worm numbers in comparison with the placebo treated group, Abbot's formula) (A. viteae)
1 | CS(=O)(=O)Nc1ccc(-c2ccc(C(F)(F)F)cc2Cl)cc1C(=O)Nc1cc(C(F)(F)F)cc(C(F)(F)F)c1 [Compound 1.13, N-(3,5-bis(trifluoromethyl)phenyl)-2′-chloro-4-(methyl-sulfonamido)-4′-(trifluoromethyl)-[1,1′-biphenyl]-3-carboxamide] | > 90 | > 95 | above 80%
2 | CS(=O)(=O)Nc1ccc(Oc2ccc(Cl)cc2)cc1C(=O)Nc1cc(Cl)c(Cl)c(Cl)c1 [Compound 2.1, 5-(4-Chlorophenoxy)-2-(methylsulfonamido)-N-(3,4,5-trichlorophenyl) benzamide] | – | – | above 80%
